Counter-ions that a name gives are not always drawn. Like-named read-outs stand apart in the source and are kept apart here. Hit rate of the full screen: of about 3,300 compounds, about 60 (2%) showed an effect of 50% or more. The list shows a part of the results.

In the test the test system is HCoV-OC43. The arrangement: species or system RD; HTS, protection from HCoV-OC43 induced cell death, luminescent cell viability (CellCounting-Lite 2.0), inhibition rate. The following applies: 24 h post infection, 1 h compound pre-incubation, 10 µM, inhibitor.

With `C[Se]C[C@H](N)C(=O)O` [Se-Methylselenocysteine], the “OC43 Inhibition rate” value is listed as -3.8%.
As to `CN[C@H](CC(C)C)C(=O)N[C@H]1C(=O)N[C@@H](CC(N)=O)C(=O)N[C@H]2C(=O)N[C@H]3C(=O)N[C@H](C(=O)N[C@H](C(=O)O)c4cc(O)cc(O)c4-c4cc3ccc4O)[C@H](O)c3ccc(c(Cl)c3)Oc3cc2cc(c3O[C@@H]2O[C@H](CO)[C@@H](O)[C@H](O)[C@H]2O[C@H]2C[C@](C)(N)[C@H](O)[C@H](C)O2)Oc2ccc(cc2Cl)[C@H]1O` [Vancomycin (hydrochloride)], the “OC43 Inhibition rate” value (OC43 Inhibition rate, 24 h) is recorded as -4%.
In the case of `C[C@H](CCC(=O)O)[C@H]1CC[C@H]2[C@@H]3[C@H](O)C[C@@H]4CC(=O)CC[C@]4(C)[C@H]3C[C@H](O)[C@]12C` [3-Oxocholic acid], the “OC43 Inhibition rate” value came out at 0.1%.
On to `COc1cc(O)cc(/C=C/c2ccc(O)cc2)c1` [Pinostilbene], for which the “OC43 Inhibition rate” value is listed as -0.3%.
Regarding `C[S@@+]([O-])CCCCN=C=S` [(R)-sulforaphane], the “OC43 Inhibition rate” value worked out at 71.2%.
Still for that read-out and setting: under `Nc1nc(O)c2[nH]nnc2n1` [8-Azaguanine] stands 54.4%; under `O=C1CC(C(=O)O)c2c1oc(=O)c1cc(O)c(O)c(O)c21` (stereo not shown) [Brevifolincarboxylic acid], -0.7%.
Still for that read-out and setting: under `NCCCCCC(=O)O` [6-Aminocaproic acid] stands 0.9%.
As to `CCCCCCCCCCCCCCCCCCCCCC(=O)O` [Docosanoic acid], the “OC43 Inhibition rate” value is -0.1%.
On to `C[C@H](O)[C@@H](O)[C@@H](O)[C@H](O)C=O` [(-)-Fucose], for which the “OC43 Inhibition rate” value worked out at 0.3%.
As for `COc1cc([C@H]2Oc3ccc([C@H]4Oc5cc(O)cc(O)c5C(=O)[C@@H]4O)cc3O[C@@H]2CO)ccc1O` [Isosilybin A], the “OC43 Inhibition rate” value worked out at 16.2%.
Still for that read-out and setting: under `O=C(/C=C/c1ccc(O)cc1)NCCc1c[nH]c2ccc(O)cc12` [N-(p-Coumaroyl) Serotonin] stands 10.1%; under `O[C@@H]1[C@@H](O)[C@H](OC/C=C/c2ccccc2)O[C@H](CO[C@@H]2OC[C@H](O)[C@H](O)[C@H]2O)[C@H]1O` [Rosavin], -1.2%.
Regarding `CCCCCCCCCCC(=O)OC` [Methyl undecanoate], the “OC43 Inhibition rate” value was -0.4%.
On to `CC1=CCCC(C)(C)[C@H]1/C=C/C(C)=C/C=C/C(C)=C/C=C/C=C(C)/C=C/C=C(C)/C=C/C1=C(C)CCCC1(C)C` [α-Carotene], for which the “OC43 Inhibition rate” value worked out at 19.1%.
Take `NC(=O)C[C@H](N)C(=O)O` [L-Asparagine]: the “OC43 Inhibition rate” value is -3%.
For `C[C@@H]1O[C@@H](O[C@H]2[C@H](O)[C@@H](O)[C@H](OC[C@H]3O[C@@H](OC(=O)[C@]45CCC(C)(C)C[C@H]4C4=CC[C@@H]6[C@@]7(C)CC[C@H](O[C@@H]8OC[C@H](O)[C@H](O)[C@H]8O)[C@@](C)(CO)[C@@H]7CC[C@@]6(C)[C@]4(C)CC5)[C@H](O)[C@@H](O)[C@@H]3O)O[C@@H]2CO)[C@H](O)[C@H](O)[C@H]1O` [Hederacoside D], for the setting “OC43 Inhibition rate, 24 h”, the “OC43 Inhibition rate” value was determined as 0.3%.
Regarding `CC(C)=CCC[C@](C)(O[C@@H]1O[C@H](CO[C@@H]2OC[C@H](O)[C@H](O)[C@H]2O)[C@@H](O)[C@H](O)[C@H]1O)[C@H]1CC[C@]2(C)[C@@H]1[C@H](O)C[C@@H]1[C@@]3(C)CC[C@H](O[C@@H]4O[C@H](CO)[C@@H](O)[C@H](O)[C@H]4O[C@@H]4O[C@H](CO)[C@@H](O)[C@H](O)[C@H]4O)C(C)(C)[C@@H]3CC[C@]12C` [Ginsenoside Rb2], the “OC43 Inhibition rate” value was -0.7%.
For `C/C=C(\C)C(=O)O[C@@H]1c2cc(OC)c(OC)c(OC)c2-c2c(cc3c(c2OC)OCO3)C[C@H](C)[C@@]1(C)O` [Tigloylgomisin P], the “OC43 Inhibition rate” value was determined as 1.1%.
For `COc1cc2oc(=O)ccc2c(OC)c1C[C@@H](O)C(C)(C)O` [Toddalolactone], the “OC43 Inhibition rate” value is given as -0.5%.
On the same count and under the same terms, under `Cc1ncc(CO)c(C=O)c1O` [Pyridoxal hydrochloride] stands 0%; under `COc1ccc(-c2cc(=O)c3c(OC)c(OC)c(OC)cc3o2)cc1` [Scutellarein tetramethyl ether], 22.2%.
`Nc1ccn([C@H]2C[C@H](O)[C@@H](CO)O2)c(=O)n1` [2'-Deoxycytidine]: the “OC43 Inhibition rate” value worked out at 4.5%.
Consider `O=C(O)CC(=O)C(=O)O` [Oxaloacetic acid], for which the “OC43 Inhibition rate” value is 6%.
As to `O=C(O)/C=C/c1cccc(O)c1` [(E)-m-Coumaric acid], the “OC43 Inhibition rate” value is given as -0.6%.
The same measure, in the same setting: under `CC(C)C[C@H]1C(=O)O[C@H](Cc2ccccc2)C(=O)N(C)[C@@H](CC(C)C)C(=O)O[C@H](C)C(=O)N(C)[C@@H](CC(C)C)C(=O)O[C@H](Cc2ccccc2)C(=O)N(C)[C@@H](CC(C)C)C(=O)O[C@H](C)C(=O)N1C` [PF 1022A] stands -3.6%; under `COC(=O)C1=C(O)c2ccccc2C(=O)[C@]1(CC=C(C)C)C1=CC(=O)c2ccccc2C1=O` [Rubipodanone A], 58.8%.
On to `C=C1[C@H](O)C[C@H]2[C@@H](/C=C(/C)C(=O)[C@@]3(O)C[C@H](C)[C@H](O)[C@@H]3[C@H]1O)C2(C)C` [7beta-Hydroxylathyrol], for which the “OC43 Inhibition rate” value is on record as -0.4%.
`COc1cc2c(cc1OC)OC(C)(C)C=C2` [Precocene II]: the “OC43 Inhibition rate” value is 1.2%.
In the case of `CC(C)CCC[C@@H](C)[C@H]1CC[C@H]2[C@@H]3CCC4=CC(=O)CC[C@]4(C)[C@H]3CC[C@]12C` [Cholestenone], the “OC43 Inhibition rate” value was -0.3%.
Consider `CC(C)=CCc1c(O)ccc(-c2coc3cc(O)cc(O)c3c2=O)c1O` [Licoisoflavone A], for which the “OC43 Inhibition rate” value is on record as 59.7%.
Consider `C/C=C/C[C@@H](C)[C@@H](O)[C@H]1C(=O)N[C@@H](C(C)C)C(=O)N(C)CC(=O)N(C)[C@@H](CC(C)C)C(=O)N[C@@H](C(C)C)C(=O)N(C)[C@@H](CC(C)C)C(=O)N[C@@H](C)C(=O)N[C@H](C)C(=O)N(C)[C@@H](CC(C)C)C(=O)N(C)[C@@H](CC(C)C)C(=O)N(C)[C@@H](C(C)C)C(=O)N1C` [Cyclosporin D], for which the “OC43 Inhibition rate” value amounted to 68%.
For `Oc1ccc(CCc2cc(O)cc(O)c2)cc1` [Dihydroresveratrol], the “OC43 Inhibition rate” value is given as -6.5%.
Take `CCCCCCCC(=O)OCC(COC(=O)CCCCCCC)OC(=O)CCCCCCC` [Tricaprilin]: the “OC43 Inhibition rate” value is 0%.
The same measure, in the same setting: then `CO[C@H]1C[C@H](O[C@H]2CC[C@]3(C)[C@H]4CC[C@]5(C)[C@@H](C6=CC(=O)OC6)CC[C@]5(O)[C@@H]4CC[C@]3(O)C2)O[C@H](C)[C@H]1O` [Periplocymarin], with 3.9%; and `C[N+](C)(C)CCCC(=O)O` [(3-Carboxypropyl)trimethylammonium chloride], with -0.8%.
Consider `COC(=O)[C@]12CCC(C)(C)C[C@H]1C1=CC[C@@H]3[C@@]4(C)CCC(=O)C(C)(C)[C@@H]4CC[C@@]3(C)[C@]1(C)CC2` [Methyl oleanonate], for which the “OC43 Inhibition rate” value is -0.1%.
Turning to `C=C1C(=O)O[C@@H]2C[C@@]3(C)CCCC(=C)[C@@H]3C[C@H]12` [Isoalantolactone], the “OC43 Inhibition rate” value is 0.9%.
Regarding `C[C@@H]1O[C@@H](Oc2c(-c3ccc(O)cc3)oc3cc(O)cc(O)c3c2=O)[C@H](O)[C@H](O)[C@H]1O` [Afzelin], the “OC43 Inhibition rate” value came to 8.7%.
On to `C/C=C/C(=O)O` [NSC 8751], for which the “OC43 Inhibition rate” value is listed as -2.6%.
As for `NC(Cn1ccc(=O)c(O)c1)C(=O)O` (stereo not shown) [Mimosine], the “OC43 Inhibition rate” value is listed as -6.4%.
For the compound `COc1ccc(/C=C/c2cc(O)cc(O[C@@H]3O[C@H](CO)[C@@H](O)[C@H](O)[C@H]3O)c2)cc1` [Desoxyrhaponticin], the “OC43 Inhibition rate” value came out at 0.6%.
Consider `CCCCCCCCCCCCCC(=O)OC[C@@H](O)COP(=O)([O-])OCC[N+](C)(C)C` [LysoPC(14:0/0:0)], for which the “OC43 Inhibition rate” value is -0.2%.
`CC(CC(=O)O)C(=O)O` (stereo not shown) [2-Methylsuccinic acid]: the “OC43 Inhibition rate” value turned out to be 0.4%.
Consider `CC(C)=CCC/C(C)=C/Cc1cc(-c2coc3cc(O)ccc3c2=O)ccc1O` [Corylifol A], for which the “OC43 Inhibition rate” value is given as -2.2%.
On the same count and under the same terms, then `COc1ccc(C(=O)/C=C/c2ccc(O)cc2)c(O)c1CC=C(C)C` [4-Hydroxyderricin], with 2%.
On to `O=C(O)C(O)c1cccc(O)c1` (stereo not shown) [3-Hydroxymandelic Acid], for which the “OC43 Inhibition rate” value is given as -0.1%.
`CC12CCC(C1)C(C)(C)C2O` (stereo not shown) [Fenchyl alcohol]: the “OC43 Inhibition rate” value was -5.1%.
For `CC(C)=CCC[C@@](C)(O)[C@H]1CC[C@]2(C)[C@@H]1[C@H](O)C[C@@H]1[C@@]3(C)CC[C@H](O)C(C)(C)[C@@H]3[C@@H](O[C@@H]3O[C@H](CO)[C@@H](O)[C@H](O)[C@H]3O[C@@H]3O[C@@H](C)[C@H](O)[C@@H](O)[C@H]3O)C[C@]12C` [20(R)-Ginsenoside Rg2], the “OC43 Inhibition rate” value is given as 8.8%.
Same read-out and setting: then `CNC(=O)c1cccnc1` [N-Methylnicotinamide], with 0.5%.
Still for that read-out and setting: then `CC(C)=CCc1cc([C@@H]2CC(=O)c3ccc(O)c(CC=C(C)C)c3O2)ccc1O` [Glabrol], with 55.6%.
On the same count and under the same terms, then `O=C(/C=C/c1ccc(O)c(O)c1)O[C@@H]1C[C@@](O)(C(=O)O)C[C@@H](O)[C@@H]1O` [Neochlorogenic acid], with -0.4%.
Regarding `CC(C)(O)CCC(=O)[C@](C)(O)C1[C@H](O)C[C@@]2(C)[C@@H]3CC=C4[C@@H](C[C@H](O)[C@@H](O)C4(C)C)[C@]3(C)C(=O)C[C@]12C` (stereo partly shown) [Cucurbitacin IIb], the “OC43 Inhibition rate” value is reported as -0.5%.
Take `C[C@]12CCC(=O)C=C1CC[C@@H]1[C@@H]2CC[C@@]2(C)[C@H]1CC[C@]2(O)C(=O)CO` [Cortodoxone]: the “OC43 Inhibition rate” value was found to be 1.1%.
For `Cc1c(N)nc([C@H](CC(N)=O)NC[C@H](N)C(N)=O)nc1C(=O)N[C@H](C(=O)N[C@H](C)[C@@H](O)[C@H](C)C(=O)N[C@H](C(=O)NCCc1nc(-c2nc(C(=O)NCCC[S+](C)C)cs2)cs1)[C@@H](C)O)[C@@H](O[C@@H]1O[C@@H](CO)[C@@H](O)[C@H](O)[C@@H]1O[C@H]1O[C@H](CO)[C@@H](O)[C@H](OC(N)=O)[C@@H]1O)c1cnc[nH]1` [Bleomycin (sulfate)], the “OC43 Inhibition rate” value is recorded as -11.1%.

(Values after article PMC12431657, “Discovery and mechanistic insights of dibenzoylmethane as a broad spectrum inhibitor of coronavirus” (PLOS Pathogens, 2025).)
